# Reference: the supplement of paper PMC12067093, “Discovery and optimisation of a covalent ligand for TRIM25 and its application to targeted protein ubiquitination” (Chemical Science, 2025)
# Sequences of proteins named here, by UniProt entry; tags and fusion partners are left off. A change or cut given only in a name is not applied to a line headed by its entry.
# UniProt Q9NR12, whole entry, looked up: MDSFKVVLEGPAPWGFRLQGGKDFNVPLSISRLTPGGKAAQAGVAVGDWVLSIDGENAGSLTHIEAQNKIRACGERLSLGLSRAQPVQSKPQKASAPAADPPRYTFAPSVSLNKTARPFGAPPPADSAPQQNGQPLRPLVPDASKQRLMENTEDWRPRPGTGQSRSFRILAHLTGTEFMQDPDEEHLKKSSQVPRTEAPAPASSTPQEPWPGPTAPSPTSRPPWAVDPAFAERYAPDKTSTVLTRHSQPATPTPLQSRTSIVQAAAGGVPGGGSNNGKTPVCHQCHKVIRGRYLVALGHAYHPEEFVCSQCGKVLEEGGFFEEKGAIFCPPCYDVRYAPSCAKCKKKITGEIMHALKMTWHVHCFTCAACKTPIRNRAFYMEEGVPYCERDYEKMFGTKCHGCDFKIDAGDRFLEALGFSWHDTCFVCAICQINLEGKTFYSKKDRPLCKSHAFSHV
# UniProt P54750: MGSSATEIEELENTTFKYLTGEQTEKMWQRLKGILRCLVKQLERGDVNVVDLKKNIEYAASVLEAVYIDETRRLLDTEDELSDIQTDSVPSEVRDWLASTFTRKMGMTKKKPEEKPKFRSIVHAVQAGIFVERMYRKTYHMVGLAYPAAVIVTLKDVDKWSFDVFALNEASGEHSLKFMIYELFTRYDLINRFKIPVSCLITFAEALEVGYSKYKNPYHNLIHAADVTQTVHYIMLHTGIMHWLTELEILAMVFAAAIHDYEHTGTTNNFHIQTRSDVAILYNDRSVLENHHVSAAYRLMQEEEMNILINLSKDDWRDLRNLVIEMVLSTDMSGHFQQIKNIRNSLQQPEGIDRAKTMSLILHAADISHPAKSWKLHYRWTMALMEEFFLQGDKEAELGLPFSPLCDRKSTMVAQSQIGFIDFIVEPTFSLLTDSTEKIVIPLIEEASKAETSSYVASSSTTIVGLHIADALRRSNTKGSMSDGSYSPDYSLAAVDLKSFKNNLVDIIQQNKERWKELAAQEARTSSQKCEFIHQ
# UniProt Q15365, whole entry, looked up: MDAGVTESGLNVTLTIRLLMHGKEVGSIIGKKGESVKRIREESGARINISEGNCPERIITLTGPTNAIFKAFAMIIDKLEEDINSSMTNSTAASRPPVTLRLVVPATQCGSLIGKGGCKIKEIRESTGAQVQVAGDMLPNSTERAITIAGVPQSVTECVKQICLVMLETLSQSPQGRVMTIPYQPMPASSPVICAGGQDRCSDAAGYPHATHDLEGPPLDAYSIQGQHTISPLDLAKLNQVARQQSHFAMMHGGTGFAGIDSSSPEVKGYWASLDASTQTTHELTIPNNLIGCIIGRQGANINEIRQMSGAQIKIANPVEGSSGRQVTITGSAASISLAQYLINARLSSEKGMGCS
# UniProt P30039: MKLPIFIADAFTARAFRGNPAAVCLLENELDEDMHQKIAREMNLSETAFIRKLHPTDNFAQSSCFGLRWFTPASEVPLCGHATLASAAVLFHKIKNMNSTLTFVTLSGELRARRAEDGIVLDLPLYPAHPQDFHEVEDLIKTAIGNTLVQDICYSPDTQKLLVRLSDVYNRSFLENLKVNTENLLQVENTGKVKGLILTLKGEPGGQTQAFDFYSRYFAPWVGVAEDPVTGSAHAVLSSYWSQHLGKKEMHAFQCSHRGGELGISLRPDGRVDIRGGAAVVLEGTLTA
# UniProt Q9HBH1: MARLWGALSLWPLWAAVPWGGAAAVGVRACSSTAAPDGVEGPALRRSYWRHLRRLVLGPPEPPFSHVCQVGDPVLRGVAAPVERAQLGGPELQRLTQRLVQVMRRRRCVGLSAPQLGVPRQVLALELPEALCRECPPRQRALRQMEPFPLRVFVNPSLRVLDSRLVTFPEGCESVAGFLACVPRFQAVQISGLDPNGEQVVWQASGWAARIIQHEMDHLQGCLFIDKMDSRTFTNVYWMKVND
# UniProt Q9BVG4: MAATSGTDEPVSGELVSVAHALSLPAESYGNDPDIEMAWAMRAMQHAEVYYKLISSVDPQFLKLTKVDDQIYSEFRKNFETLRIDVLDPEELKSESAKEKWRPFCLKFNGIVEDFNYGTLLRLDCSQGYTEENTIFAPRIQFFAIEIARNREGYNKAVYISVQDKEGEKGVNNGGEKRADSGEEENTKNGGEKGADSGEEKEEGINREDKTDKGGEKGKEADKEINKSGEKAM
# UniProt Q96HC4: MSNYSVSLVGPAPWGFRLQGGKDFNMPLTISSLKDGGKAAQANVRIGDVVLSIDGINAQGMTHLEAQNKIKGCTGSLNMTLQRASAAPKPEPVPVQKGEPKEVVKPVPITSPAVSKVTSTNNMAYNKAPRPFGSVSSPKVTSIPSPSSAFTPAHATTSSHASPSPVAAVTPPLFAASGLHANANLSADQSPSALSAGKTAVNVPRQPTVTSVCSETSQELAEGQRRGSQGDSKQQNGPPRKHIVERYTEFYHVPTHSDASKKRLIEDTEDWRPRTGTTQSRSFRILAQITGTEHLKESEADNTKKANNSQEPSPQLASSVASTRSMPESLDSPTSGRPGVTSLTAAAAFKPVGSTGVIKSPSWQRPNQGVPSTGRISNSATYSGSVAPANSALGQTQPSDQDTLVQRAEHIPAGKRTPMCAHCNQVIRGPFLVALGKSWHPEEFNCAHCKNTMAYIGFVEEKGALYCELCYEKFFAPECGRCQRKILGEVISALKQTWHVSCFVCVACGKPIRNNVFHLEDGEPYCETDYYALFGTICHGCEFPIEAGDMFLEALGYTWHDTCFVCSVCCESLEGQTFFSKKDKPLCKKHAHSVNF
# UniProt Q14690: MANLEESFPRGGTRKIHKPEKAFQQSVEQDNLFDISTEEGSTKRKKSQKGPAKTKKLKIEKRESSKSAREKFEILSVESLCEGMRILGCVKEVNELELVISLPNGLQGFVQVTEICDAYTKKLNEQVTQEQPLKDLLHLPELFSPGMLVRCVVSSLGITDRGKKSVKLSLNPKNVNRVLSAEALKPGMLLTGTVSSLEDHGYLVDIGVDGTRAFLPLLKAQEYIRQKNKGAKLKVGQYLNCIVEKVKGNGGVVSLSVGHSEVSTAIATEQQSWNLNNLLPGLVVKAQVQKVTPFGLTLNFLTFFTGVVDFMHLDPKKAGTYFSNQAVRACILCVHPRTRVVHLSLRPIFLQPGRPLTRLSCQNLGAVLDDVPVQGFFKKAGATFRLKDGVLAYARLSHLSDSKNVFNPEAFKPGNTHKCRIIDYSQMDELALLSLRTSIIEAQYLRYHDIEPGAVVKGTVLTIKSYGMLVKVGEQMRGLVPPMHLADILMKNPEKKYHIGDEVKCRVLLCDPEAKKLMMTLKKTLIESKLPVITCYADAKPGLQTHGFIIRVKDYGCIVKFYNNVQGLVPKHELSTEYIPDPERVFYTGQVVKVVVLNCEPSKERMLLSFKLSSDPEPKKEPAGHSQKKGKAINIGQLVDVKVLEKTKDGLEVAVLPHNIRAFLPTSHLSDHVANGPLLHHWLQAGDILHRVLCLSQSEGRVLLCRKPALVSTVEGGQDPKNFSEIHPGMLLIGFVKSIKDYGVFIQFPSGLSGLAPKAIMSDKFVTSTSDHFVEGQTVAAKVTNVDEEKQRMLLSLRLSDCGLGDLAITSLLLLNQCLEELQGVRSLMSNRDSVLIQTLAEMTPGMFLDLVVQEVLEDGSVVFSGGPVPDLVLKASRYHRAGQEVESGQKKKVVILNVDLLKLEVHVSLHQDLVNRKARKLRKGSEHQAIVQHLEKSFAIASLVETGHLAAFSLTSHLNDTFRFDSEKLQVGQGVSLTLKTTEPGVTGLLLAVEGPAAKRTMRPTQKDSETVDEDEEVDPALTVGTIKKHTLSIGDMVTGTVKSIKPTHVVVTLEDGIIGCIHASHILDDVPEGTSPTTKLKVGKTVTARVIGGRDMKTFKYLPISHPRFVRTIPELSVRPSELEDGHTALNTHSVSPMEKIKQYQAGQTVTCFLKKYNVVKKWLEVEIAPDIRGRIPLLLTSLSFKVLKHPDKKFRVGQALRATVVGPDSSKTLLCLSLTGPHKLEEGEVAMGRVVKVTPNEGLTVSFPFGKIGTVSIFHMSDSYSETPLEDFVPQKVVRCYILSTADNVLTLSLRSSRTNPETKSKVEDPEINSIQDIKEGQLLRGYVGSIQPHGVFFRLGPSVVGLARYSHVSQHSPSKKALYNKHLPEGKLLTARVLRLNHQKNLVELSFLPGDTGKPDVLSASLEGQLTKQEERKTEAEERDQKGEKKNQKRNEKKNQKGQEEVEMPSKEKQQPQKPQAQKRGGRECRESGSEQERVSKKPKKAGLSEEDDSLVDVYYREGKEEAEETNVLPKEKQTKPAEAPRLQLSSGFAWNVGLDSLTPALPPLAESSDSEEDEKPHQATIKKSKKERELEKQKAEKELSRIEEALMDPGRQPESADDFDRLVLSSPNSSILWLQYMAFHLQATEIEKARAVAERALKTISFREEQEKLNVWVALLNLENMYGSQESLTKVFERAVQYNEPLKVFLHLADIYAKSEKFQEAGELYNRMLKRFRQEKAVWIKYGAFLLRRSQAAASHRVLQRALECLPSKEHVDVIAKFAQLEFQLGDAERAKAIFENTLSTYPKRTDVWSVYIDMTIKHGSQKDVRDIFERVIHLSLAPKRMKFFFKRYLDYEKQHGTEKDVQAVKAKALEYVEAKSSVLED
# UniProt Q8NCN5: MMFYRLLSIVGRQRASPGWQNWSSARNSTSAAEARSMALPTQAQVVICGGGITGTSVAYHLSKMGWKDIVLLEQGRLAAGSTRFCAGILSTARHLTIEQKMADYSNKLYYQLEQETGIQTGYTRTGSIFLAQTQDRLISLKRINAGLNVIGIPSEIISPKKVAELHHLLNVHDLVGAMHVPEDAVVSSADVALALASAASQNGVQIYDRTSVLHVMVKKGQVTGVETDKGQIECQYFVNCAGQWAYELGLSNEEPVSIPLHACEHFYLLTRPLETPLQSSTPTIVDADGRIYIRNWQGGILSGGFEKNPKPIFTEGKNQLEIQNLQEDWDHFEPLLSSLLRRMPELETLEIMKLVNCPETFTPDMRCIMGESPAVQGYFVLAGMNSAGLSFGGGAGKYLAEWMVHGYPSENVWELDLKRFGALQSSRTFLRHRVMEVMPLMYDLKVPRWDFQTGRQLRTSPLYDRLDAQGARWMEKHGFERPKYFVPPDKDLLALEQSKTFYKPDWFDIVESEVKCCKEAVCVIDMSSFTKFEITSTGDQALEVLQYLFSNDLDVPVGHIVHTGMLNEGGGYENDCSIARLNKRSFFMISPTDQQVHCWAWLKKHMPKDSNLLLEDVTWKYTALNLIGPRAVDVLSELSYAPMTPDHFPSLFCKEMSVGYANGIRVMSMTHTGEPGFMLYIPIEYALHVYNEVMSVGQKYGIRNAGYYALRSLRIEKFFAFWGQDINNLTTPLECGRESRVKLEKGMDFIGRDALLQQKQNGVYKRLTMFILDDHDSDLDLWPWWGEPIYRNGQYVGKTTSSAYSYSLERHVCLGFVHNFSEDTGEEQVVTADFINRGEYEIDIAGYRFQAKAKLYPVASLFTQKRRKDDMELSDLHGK
# UniProt Q9BRP1: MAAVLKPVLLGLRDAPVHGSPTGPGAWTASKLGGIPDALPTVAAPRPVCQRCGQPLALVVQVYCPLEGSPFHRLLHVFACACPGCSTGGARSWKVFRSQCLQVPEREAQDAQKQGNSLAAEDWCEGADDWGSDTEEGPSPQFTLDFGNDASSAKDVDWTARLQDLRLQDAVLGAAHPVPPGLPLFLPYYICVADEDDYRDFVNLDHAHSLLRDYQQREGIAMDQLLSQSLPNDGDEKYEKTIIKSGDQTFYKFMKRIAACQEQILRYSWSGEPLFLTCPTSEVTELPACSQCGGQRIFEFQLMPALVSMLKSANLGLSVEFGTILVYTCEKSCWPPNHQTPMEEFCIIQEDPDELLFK
# UniProt P30101, whole entry, looked up: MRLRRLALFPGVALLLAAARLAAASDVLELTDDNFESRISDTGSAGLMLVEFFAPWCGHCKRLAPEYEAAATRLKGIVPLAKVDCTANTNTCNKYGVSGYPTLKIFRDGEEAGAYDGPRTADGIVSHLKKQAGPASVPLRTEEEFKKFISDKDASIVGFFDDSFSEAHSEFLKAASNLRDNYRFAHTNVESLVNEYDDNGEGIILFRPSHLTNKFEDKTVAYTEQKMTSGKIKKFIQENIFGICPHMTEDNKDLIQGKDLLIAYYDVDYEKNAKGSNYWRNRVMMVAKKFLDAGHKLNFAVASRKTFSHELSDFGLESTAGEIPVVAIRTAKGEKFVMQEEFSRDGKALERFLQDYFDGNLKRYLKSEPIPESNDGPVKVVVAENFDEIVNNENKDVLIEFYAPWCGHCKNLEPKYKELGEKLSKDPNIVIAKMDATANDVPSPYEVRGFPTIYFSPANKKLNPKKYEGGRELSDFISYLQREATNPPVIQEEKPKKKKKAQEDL
# The other results are listed elsewhere or left out.
# Compound: Cc1cc(ccc1-c1ccccc1)C(=O)N1CCCN(CC1)C(=O)CCl [compound 10]
# Assay: probe-labelled cysteine peptide fold change vs DMSO (competition) (log2 fold change); higher = less target engagement (more negative = stronger competition)
# Conditions: 10 µM; THP-1; incubation time: 4 h
# 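Further: competitive profiling in live THP-1 cells: cysteine peptides tagged with an iodoacetamide desthiobiotin (IA-DTB) probe, intensity after compound treatment relative to DMSO-treated cells.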
row,Target,probe-labelled cysteine peptide fold change
1,PDLIM7_Q9NR12_311_YLVALGHAYHPEEFVCSQCGK (UniProt Q9NR12),-0.0151
2,PDS5A_Q29RF7_742_QAVHCIHAIFTNK (UniProt Q29RF7),0.159
3,PDLIM7_Q9NR12_308+311_YLVALGHAYHPEEFVCSQCGK (UniProt Q9NR12),0.177
4,PDE1A_P54750_406_EAELGLPFSPLCDR (UniProt P54750),-0.0928
5,PCBP2_Q15366-2_302_GYWAGLDASAQTTSHELTIPNDLIGCIIGR (UniProt Q15366),0.32
6,PCBP1_Q15365_109_LVVPATQCGSLIGK (UniProt Q15365),-0.107
7,PBLD_P30039_24_GNPAAVCLLENELDEDMHQK (UniProt P30039),-0.211
8,PDF_Q9HBH1_172+181_LVTFPEGCESVAGFLACVPR (UniProt Q9HBH1),-0.074
9,PBDC1_Q9BVG4_125_LDCSQGYTEENTIFAPR (UniProt Q9BVG4),0.12
10,PDLIM5_Q96HC4_420_TPMCAHCNQVIR (UniProt Q96HC4),0.0871
11,PDCD11_Q14690_330+333_ACILCVHPR (UniProt Q14690),0.0345
12,PDPR_Q8NCN5_735_FFAFWGQDINNLTTPLECGR (UniProt Q8NCN5),-0.247
13,PDCD2L_Q9BRP1_100_SQCLQVPER (UniProt Q9BRP1),-0.000226
14,PCM1_Q15154_1867_NDQNNCPVK (UniProt Q15154),-0.33
15,PDIA3_P30101_57+60_ISDTGSAGLMLVEFFAPWCGHCK (UniProt P30101),-0.103
16,PCNT_O95613_357_DLCLENLR (UniProt O95613),0.271
